# Measured values as given in PMC4942636.
# By UniProt entry, the sequences of proteins in these tests, tags left out.
# UniProt P0DMV8: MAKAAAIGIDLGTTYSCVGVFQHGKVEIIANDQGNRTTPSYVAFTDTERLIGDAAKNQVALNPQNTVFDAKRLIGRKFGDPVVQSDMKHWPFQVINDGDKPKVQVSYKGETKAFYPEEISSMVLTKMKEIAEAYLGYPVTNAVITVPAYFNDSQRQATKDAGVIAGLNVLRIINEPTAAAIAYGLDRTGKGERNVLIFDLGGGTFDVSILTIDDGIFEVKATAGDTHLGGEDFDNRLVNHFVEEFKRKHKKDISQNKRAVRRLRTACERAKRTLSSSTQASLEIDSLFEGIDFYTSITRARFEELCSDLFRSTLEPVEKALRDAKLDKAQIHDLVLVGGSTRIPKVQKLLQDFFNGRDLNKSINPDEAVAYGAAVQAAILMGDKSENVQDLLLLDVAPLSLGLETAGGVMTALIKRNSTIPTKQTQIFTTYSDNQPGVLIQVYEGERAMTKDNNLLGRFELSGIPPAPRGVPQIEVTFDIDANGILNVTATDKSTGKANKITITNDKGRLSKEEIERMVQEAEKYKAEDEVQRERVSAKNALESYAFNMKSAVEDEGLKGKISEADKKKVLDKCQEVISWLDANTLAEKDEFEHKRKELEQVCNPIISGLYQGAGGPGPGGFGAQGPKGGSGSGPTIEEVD
# UniProt P11142: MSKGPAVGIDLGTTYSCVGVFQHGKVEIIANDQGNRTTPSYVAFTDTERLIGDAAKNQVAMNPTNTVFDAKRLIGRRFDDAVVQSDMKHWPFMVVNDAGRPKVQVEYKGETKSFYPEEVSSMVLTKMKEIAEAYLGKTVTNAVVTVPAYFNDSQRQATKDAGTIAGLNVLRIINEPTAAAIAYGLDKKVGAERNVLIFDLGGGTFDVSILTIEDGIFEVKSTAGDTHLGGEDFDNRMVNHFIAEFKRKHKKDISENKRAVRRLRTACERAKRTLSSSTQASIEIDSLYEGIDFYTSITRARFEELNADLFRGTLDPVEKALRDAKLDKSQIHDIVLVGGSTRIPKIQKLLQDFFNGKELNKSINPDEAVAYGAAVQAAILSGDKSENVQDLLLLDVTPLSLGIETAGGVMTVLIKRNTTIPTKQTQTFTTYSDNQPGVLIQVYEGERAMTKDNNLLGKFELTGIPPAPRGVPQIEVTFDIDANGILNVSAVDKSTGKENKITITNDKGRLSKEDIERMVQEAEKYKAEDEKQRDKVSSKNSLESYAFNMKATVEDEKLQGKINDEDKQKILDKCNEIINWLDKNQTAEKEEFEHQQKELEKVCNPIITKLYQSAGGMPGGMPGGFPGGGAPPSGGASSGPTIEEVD
# UniProt P08238: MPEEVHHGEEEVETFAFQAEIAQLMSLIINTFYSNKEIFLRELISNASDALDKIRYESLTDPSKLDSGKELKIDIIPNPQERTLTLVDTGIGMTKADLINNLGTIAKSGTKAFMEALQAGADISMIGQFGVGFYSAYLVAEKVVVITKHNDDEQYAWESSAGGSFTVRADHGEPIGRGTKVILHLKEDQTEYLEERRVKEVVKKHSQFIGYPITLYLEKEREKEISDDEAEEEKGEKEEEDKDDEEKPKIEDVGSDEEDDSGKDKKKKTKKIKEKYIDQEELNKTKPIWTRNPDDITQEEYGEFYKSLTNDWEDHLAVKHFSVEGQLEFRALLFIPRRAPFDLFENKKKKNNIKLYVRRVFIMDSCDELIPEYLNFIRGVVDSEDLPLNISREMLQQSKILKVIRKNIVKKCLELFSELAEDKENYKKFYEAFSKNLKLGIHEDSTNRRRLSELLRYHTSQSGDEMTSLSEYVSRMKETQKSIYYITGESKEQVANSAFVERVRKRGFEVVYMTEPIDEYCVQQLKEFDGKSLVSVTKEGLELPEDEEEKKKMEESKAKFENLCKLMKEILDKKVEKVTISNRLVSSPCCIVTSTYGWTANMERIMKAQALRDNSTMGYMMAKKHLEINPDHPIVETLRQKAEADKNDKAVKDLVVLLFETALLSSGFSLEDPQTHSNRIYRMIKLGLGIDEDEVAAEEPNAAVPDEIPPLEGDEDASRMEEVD
# UniProt Q14980: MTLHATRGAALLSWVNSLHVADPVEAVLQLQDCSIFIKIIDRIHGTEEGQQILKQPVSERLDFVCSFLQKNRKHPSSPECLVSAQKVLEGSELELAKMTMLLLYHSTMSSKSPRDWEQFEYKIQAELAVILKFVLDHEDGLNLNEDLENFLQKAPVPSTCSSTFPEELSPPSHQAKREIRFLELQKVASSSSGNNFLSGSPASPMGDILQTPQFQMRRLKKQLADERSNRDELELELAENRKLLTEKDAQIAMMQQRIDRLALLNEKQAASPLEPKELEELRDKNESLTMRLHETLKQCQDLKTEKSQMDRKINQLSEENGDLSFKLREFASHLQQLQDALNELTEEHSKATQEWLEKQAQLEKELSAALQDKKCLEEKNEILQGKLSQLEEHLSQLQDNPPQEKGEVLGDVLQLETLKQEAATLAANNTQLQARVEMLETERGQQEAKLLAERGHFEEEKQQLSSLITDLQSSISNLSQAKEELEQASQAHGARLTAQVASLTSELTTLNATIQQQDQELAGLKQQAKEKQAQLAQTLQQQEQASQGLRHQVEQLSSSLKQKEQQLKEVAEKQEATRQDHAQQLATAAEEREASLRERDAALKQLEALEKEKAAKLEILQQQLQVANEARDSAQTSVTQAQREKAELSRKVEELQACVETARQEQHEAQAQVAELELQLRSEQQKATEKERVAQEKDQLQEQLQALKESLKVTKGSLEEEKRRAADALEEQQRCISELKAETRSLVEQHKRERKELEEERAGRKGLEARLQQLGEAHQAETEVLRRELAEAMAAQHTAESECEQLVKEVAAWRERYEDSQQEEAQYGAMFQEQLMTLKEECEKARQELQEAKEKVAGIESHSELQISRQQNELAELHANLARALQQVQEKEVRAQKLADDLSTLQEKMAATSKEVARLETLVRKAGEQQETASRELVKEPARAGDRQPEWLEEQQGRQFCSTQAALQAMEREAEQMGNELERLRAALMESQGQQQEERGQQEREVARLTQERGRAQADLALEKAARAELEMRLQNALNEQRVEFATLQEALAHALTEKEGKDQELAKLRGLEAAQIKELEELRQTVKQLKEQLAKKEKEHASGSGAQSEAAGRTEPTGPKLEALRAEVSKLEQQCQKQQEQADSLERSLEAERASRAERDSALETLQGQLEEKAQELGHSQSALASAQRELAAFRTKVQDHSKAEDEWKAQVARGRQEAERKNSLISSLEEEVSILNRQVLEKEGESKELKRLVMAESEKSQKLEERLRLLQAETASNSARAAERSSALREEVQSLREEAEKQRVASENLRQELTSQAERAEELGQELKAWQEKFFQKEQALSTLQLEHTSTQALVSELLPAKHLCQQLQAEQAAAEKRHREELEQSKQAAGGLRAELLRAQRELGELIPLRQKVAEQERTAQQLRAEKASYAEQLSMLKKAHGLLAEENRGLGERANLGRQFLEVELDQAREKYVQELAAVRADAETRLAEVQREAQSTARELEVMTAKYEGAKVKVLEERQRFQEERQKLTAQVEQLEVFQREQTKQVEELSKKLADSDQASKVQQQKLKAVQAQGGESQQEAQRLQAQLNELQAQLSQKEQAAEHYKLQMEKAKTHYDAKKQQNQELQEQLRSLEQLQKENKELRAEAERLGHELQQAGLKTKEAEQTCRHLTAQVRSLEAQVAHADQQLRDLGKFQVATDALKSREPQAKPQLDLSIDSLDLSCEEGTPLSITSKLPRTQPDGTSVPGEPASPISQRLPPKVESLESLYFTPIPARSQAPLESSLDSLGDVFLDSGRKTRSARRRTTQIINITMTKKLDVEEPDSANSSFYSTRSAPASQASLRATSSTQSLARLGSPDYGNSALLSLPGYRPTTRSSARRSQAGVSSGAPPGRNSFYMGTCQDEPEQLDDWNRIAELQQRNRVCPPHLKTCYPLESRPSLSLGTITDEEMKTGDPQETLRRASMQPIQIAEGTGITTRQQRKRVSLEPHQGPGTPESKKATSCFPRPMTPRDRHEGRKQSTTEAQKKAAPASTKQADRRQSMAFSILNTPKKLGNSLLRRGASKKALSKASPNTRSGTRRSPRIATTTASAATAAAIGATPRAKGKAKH
# UniProt P09874: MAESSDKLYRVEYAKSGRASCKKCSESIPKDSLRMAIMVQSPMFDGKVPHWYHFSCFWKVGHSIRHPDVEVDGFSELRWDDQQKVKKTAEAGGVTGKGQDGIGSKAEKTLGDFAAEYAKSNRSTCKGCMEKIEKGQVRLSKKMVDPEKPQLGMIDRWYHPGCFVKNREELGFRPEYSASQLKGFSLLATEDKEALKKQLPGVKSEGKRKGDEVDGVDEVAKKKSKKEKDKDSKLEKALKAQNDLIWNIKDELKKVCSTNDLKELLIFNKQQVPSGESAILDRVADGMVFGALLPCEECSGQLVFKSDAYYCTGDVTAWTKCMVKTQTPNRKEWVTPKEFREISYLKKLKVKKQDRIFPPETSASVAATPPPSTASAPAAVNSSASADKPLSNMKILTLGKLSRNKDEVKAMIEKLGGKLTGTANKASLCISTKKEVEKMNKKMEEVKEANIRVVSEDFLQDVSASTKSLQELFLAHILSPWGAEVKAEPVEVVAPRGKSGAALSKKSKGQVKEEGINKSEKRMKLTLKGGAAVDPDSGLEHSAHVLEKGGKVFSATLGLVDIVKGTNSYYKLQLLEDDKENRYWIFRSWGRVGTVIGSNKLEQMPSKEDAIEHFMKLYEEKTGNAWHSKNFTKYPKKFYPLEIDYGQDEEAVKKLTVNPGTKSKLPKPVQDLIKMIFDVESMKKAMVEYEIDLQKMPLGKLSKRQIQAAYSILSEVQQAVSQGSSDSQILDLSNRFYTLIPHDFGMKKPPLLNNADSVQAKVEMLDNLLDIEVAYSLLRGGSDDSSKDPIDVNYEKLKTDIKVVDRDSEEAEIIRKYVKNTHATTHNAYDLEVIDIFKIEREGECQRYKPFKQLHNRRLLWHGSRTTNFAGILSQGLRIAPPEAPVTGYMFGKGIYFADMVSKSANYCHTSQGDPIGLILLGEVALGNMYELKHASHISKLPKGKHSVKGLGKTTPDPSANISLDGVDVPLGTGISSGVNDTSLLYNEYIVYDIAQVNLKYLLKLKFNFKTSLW
# UniProt Q13263: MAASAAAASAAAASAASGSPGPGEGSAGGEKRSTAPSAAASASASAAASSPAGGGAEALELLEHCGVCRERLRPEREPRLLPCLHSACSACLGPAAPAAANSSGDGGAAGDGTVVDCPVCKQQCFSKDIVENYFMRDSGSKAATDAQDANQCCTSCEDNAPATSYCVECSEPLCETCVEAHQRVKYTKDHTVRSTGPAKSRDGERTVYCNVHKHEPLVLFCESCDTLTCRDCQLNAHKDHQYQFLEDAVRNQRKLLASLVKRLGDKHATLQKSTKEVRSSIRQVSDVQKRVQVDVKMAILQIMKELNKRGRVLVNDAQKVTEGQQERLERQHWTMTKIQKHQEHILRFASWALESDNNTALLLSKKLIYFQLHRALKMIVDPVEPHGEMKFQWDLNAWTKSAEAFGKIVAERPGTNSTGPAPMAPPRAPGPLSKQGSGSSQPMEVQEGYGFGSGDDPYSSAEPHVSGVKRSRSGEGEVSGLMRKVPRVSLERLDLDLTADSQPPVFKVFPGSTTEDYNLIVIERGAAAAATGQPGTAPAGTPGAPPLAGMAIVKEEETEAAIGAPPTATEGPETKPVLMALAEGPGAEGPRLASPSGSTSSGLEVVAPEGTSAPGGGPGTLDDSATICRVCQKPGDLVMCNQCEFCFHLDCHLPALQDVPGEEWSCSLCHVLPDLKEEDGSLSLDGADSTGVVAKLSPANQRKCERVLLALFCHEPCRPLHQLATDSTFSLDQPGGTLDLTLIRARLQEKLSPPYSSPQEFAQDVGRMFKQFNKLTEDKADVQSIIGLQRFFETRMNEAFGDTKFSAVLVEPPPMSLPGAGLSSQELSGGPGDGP
# Columns and labels:
# [1] = target: Myc-BirA*-Txnip (human) (UniProt Q9H3M7); assay: proximity labelling; BioID: Myc-BirA*-Txnip or its C247S mutant stably expressed in HEK293, DMEM with 25 mM glucose and 50 uM biotin for 24 hrs; stringent lysis (0.4% SDS, 500 mM NaCl), biotinylated proteins captured on streptavidin Dynabeads, on-bead trypsin digestion, 1D LC-MS/MS; hits in at least 2 of 3 trials, parental HEK293 as control; also the high glucose arm of cells acclimated to low glucose
# [2] = target: T1, Myc-BirA*-Txnip C247S (human) (UniProt Q9H3M7); assay: as above
# T1 sequence: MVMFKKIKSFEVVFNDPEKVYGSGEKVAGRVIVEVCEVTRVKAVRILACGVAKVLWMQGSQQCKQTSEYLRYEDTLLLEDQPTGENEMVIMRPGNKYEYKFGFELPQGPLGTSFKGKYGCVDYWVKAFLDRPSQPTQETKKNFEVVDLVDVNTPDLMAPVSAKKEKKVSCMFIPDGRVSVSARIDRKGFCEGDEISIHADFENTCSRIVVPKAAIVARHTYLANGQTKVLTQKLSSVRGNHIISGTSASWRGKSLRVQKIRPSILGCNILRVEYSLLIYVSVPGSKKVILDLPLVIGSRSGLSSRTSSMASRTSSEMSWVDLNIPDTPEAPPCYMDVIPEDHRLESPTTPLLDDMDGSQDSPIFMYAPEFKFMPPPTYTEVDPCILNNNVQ
# [3] = target: Myc-BirA*-Txnip (human) (UniProt Q9H3M7); assay: proximity labelling; BioID as a1, but BirA*-Txnip HEK293 cells acclimated to and cultured in low glucose (5.5 mM) with biotin; compared with high glucose (25 mM)
Substance,binding [1],binding [2],binding [3]
Eukaryotic translation initiation factor 5 (from UniProt P55010 1-431),binds,–,–
"Filamin-A, isoform 2 (from UniProt P21333-2)",binds,–,–
Heat shock 70 kDa protein 1A/1B (from UniProt P0DMV8 1-641),binds,no binding,no binding (only culture in low glucose (5.5 mM))
Heat shock cognate 71 kDa protein (from UniProt P11142 1-646),binds,no binding,–
Heat shock protein HSP 90-beta (from UniProt P08238 1-724),binds,no binding,no binding (only culture in low glucose (5.5 mM))
JmjC domain-containing histone demethylation protein 2C (from UniProt Q15652 1-2540),binds,–,–
Neuroblast differentiation-associated protein AHNAK (from UniProt Q09666 1-5890),binds,–,–
Nuclear mitotic apparatus protein 1 (from UniProt Q14980 1-2115),binds,–,–
Poly ADP-ribose polymerase 1 (from UniProt P09874 1-1014),binds,–,–
Sex comb on midleg-like protein 2 (from UniProt Q9UQR0 1-700),binds,–,–
Src substrate cortactin (from UniProt Q14247 1-550),binds,–,–
Stress-induced phosphoprotein 1 (from UniProt P31948 1-543),binds,no binding,–
TPR nucleoprotein (from UniProt P12270 1-2363),binds,–,–
Transcription intermediary factor 1-beta (from UniProt Q13263 1-835),binds,–,–
UPF0428 protein CXorf56 (from UniProt Q9H5V9 1-222),binds,–,–
cDNA FLJ56180 fis (from UniProt Q6ZNN8),binds,–,–

# These are yes or no findings as the source states them, for the method shown. In cells and extracts the contact can be indirect. These calls come from enrichment with a bait or labelling near it, and not all partners need be listed. For some of these results: A no says only that the protein was not detected with the bait. For some of these results: Sequences can lack the tags named with a protein.
